Protein sequences, listed by entry. Tags and fused reporters are not part of them. Residues count along the entry.
UniProt Q08830, residues 23-312: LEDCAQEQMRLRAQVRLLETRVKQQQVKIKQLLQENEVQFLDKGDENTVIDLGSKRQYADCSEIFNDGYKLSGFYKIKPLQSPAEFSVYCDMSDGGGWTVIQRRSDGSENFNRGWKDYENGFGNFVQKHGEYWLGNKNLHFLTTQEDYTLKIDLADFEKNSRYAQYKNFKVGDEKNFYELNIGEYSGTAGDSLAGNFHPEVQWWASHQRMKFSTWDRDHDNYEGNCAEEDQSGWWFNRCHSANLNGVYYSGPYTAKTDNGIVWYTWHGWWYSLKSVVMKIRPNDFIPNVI
UniProt P35579: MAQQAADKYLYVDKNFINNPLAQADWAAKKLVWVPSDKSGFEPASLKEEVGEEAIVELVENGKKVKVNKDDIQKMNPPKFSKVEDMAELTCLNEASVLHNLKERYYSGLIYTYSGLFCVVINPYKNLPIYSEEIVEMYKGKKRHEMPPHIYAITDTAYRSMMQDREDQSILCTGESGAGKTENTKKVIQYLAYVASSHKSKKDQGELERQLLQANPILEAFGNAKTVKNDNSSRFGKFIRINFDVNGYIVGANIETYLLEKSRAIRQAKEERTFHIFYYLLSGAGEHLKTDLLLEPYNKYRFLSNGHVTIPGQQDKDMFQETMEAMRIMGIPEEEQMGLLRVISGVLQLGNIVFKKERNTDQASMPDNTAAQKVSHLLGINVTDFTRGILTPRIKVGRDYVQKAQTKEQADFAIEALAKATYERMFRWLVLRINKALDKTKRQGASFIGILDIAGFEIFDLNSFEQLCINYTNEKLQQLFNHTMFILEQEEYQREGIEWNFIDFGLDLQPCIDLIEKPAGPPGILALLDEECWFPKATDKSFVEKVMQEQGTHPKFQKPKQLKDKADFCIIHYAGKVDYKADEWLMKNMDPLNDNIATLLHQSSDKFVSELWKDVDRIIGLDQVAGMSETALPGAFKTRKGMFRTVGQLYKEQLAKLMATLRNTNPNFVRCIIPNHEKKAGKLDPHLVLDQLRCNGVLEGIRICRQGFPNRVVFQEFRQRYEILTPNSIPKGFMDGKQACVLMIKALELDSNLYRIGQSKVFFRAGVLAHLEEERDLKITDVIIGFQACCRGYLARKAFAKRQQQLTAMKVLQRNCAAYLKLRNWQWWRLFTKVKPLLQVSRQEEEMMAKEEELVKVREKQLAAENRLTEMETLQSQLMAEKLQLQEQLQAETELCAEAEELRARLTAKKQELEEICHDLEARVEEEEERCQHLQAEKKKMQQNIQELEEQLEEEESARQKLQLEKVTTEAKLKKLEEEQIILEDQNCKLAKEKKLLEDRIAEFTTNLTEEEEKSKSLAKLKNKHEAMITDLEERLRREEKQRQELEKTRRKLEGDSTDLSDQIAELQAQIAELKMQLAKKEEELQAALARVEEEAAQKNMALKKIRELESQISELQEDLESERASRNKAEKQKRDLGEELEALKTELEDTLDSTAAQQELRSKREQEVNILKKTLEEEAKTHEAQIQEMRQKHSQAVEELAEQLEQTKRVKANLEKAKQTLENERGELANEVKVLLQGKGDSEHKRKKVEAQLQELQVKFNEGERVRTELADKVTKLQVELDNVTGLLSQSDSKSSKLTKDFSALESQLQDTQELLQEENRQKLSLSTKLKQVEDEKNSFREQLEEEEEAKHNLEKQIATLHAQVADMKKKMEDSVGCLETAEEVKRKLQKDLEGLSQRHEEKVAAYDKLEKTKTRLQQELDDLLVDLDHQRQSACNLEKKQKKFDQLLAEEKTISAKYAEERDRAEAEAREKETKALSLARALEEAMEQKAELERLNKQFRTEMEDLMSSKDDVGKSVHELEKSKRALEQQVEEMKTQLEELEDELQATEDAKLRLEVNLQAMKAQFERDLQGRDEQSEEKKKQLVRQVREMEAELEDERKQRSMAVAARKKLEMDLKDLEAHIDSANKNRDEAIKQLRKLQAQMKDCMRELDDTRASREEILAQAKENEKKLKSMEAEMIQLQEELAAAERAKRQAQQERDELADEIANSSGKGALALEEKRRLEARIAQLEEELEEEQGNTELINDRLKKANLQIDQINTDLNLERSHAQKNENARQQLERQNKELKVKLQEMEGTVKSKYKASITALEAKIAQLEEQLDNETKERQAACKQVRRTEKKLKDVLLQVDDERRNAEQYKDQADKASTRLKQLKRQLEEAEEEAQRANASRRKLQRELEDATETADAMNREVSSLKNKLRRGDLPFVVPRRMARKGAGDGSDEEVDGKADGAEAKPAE

According to PMC9577086:

Target: fibrinogen-like protein 1 (FGL1) (human (endogenous in PC9)) (UniProt Q08830)
Assay: affinity purification with mass spectrometry; PC9 total lysate (SD-002 buffer) incubated at 4 °C for 8 h with anti-FGL1 antibody (ab170922; Abcam), then Protein A/G agarose for 2 h; washed with lysis buffer; analysed by mass spectrometry

binding: binds
Substance: Myosin heavy chain 9 (MYH9) (from UniProt P35579 1-1960)

These are yes or no findings as the source states them, for the method shown. In cells and extracts the contact can be indirect. These calls come from enrichment with a bait or labelling near it, and not all partners need be listed.
